In US5840696A (priority 1997, dated 1998):
At least one peptide structure holds a part that was inferred or is arguable (an end, a ring closure or a residue).

Amino acid sequences for entries named in this document (tags omitted). A change or cut given only in a name is not applied to a line headed by its entry.
UniProt P34975: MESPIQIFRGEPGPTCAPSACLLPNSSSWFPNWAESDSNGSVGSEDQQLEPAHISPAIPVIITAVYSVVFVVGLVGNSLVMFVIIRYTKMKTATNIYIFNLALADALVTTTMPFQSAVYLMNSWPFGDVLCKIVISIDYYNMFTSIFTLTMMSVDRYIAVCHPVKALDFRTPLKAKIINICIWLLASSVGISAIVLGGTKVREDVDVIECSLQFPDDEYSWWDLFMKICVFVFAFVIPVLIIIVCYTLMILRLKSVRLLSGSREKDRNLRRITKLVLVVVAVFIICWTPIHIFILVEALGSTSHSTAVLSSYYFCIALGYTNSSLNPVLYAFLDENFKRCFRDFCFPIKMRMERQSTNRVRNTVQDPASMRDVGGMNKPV

Tests used:
[1] = biological target: T1, central kappa-opioid receptors (Rattus norvegicus, UniProt P34975); test: renal responses to i.c.v. peptide in rats pre-treated i.c.v. with nor-binaltorphimine; type: in vivo; settings: peptide 10 μg i.c.v.; nor-binaltorphimine 1 μg i.c.v.
T1 construct: Anesthetized male Sprague-Dawley rats; from tissue; host or cells: central nervous system of conscious male Sprague-Dawley rats (in vivo, lateral cerebral ventricle injection)
Description: Abbreviations are V, urine flow rate and UNa V, urinary sodium excretion.
For comparative purposes, the renal responses produced by central administration of the endogenous opioid peptide, dynorphin A, were also studied i.c.v.
(§1) Anesthetized male Sprague-Dawley rats (275-300 g, Sprague-Dawley, Inc., Indianapolis, Ind.) were implanted with chronic arterial and venous cannulas and a bladder catheter in accordance with previously published methods (10, 12). For experiments in which drugs were administered i.c.v., a stainless steel cannula was stereotaxically implanted into the right lateral ventricle of rats under anesthesia at least 5-7 days prior to experimentation (11). On the morning of the study rats were placed in a rat holder which permits forward and backward movement and allows for collection of urine from the bladder catheter. Conscious rats were then infused i.v. with isotonic saline (50 μl/min) for the duration of the experiment. The arterial cannulae was then flushed and attached to a pressure transducer (Statham P23Db) and the urinary bladder catheter led to a collection beaker. After equilibration and stabilization of urine flow rate and urinary sodium excretion (approximately 2-3 hours) the experimental protocol described in each figure legend commenced. […]

[2] = system: conscious Sprague-Dawley rats; test: intracerebroventricular (i.c.v.) injection in conscious rats: cardiovascular and renal responses; type: in vivo, rat; settings: i.c.v. 10 μg, naive conscious rats
Description: Abbreviations are HR, heart rate; MAP, mean arterial pressure; V, urine flow rate; and UNa V, urinary sodium excretion. Statistical significance within each group was determined by a repeated measures analysis of variance followed by a Bonferroni multiple comparisons test; asterisks (a, b, or c) denote a significant change (p<0.05) from control within each group.
as §1, with “beaker.” for “beaker. After equilibration and stabilization of urine flow rate and urinary sodium excretion (approximately 2-3 hours) the experimental protocol described in each figure legend commenced.”

`CC[C@H](C)[C@H](NC(=O)[C@H](CCCNC(=N)N)NC(=O)[C@H](CCCNC(=N)N)NC(=O)[C@H](CC(C)C)NC(=O)[C@H](Cc1ccccc1)NC(=O)CNC(=O)CNC(=O)[C@@H](N)Cc1ccc(O)cc1)C(=O)N[C@@H](CCCNC(=N)N)C(=O)N1CCC[C@H]1C(=O)N[C@@H](CCCCN)C(=O)N[C@@H](CC(C)C)C(=O)N[C@@H](CCCCN)C(=O)N[C@@H](Cc1c[nH]c2ccccc12)C(=O)N[C@@H](CC(=O)O)C(=O)N[C@@H](CC(N)=O)C(=O)N[C@@H](CCC(N)=O)C(=O)O` [dynorphin A, reference compound] was tested, and the “effect of i.c.v. nor-binaltorphimine pretreatment on the diuresis and antinatriuresis produced by the peptide” value [1] was “completely prevented” and the “renal response (urine flow rate and urinary sodium excretion)” value [2] was “concurrent diuretic and antinatriuretic response”.
